Measured values from EP4685489A2 (Roche Diagnostics GmbH, dated 2026).
These are yes or no findings as the source states them, for the method shown. Some entries that bind do so weakly or less than the wild type.

Amino acid sequences for entries named in this document (tags omitted). A change or cut given only in a name is not applied to a line headed by its entry.
UniProt Q14896: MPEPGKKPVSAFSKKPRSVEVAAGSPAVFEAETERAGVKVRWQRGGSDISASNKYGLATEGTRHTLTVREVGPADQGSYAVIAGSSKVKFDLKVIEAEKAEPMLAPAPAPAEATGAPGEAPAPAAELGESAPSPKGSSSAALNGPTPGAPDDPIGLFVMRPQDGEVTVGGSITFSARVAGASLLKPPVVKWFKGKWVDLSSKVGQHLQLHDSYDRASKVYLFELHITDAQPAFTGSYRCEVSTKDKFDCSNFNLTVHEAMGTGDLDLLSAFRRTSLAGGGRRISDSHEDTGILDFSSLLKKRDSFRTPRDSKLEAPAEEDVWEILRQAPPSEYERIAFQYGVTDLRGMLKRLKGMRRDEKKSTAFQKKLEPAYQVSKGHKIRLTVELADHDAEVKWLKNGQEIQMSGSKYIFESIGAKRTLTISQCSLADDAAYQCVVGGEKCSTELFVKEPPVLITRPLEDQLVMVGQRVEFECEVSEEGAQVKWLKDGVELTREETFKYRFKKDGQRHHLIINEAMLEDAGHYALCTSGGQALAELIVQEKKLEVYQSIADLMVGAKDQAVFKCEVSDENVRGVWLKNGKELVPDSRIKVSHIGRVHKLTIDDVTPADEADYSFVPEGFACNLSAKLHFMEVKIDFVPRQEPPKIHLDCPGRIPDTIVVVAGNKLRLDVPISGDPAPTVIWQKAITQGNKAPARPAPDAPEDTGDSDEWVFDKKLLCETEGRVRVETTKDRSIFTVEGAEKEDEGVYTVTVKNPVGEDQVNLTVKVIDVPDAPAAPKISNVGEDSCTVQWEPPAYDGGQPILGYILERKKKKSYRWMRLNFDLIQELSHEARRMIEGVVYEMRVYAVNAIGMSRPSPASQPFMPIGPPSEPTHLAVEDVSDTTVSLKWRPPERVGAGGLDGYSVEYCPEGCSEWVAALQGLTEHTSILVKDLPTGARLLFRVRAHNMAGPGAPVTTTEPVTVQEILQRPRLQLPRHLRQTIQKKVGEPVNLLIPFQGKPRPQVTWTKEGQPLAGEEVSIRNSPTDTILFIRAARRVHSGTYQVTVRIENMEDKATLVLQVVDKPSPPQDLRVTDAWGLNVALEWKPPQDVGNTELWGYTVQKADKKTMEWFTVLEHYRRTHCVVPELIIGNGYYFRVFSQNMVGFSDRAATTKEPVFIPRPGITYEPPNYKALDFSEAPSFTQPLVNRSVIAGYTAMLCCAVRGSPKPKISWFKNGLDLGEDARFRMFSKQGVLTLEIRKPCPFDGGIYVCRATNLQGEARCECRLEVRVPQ

B1: monoclonal antibody 4.1.1 (antibody, V domains shown)
VH: QVQLKESGPGLVAPSQSLSITCTVSGFSLTGYGVNWVRQPPGKGLEWLGMIWGDGSTDYNSVYKSRLSISKDNSKSQVFLKMNSLQTDDTARYYCARRDTGGASMDYWGQGTSVTVSS
VL: DILMTQSPAILSVSPGERVSFSCRASQNIGTNMHWYQQRTNGSPRLLIRFASESFSGIPSRFSGTGSGTDFTLRINSVESEDIADYYCQQSYNWPFTFGAGTKLELK
notes: Mouse hybridoma monoclonal IgG; Biotinylated, DIG-labelled or ruthenylated in the sandwich assays; also called M-4.1.1; M.4.1.1
B2: monoclonal antibody 7B5 (antibody, V domains shown)
VH: QEQLEESGGGLVKPGGTLTLTCKVSGFDFSSGYDMCWVRQAPGKGLESIACIGSSSASTWYANWVNGRFTVSRSTSLNTVDLKMTSLTVADTATYFCARESSTEYYYNLWGPGTLVTVSS
VL: DIVMTQTPASVEAAVGGTVTIKCQASQSIGNALAWYQQKPGQPPKLLIYSTSYLPSGVPSRFKGGGSGAEYTLTISDLECADAATYYCQSYYVSTSSSDRSSFGGGTEVVVK
notes: Rabbit B-cell derived monoclonal IgG, expressed recombinantly in HEK293 cells; Biotinylated, DIG-labelled or ruthenylated in the sandwich assays; also called mAB 7B5; MAK<MYPBC3<rK-7B5-IgG(SPA)

Experiments:
[1] = target: recombinant MYBPC3, monomeric, biotinylated via Avi-tag (human) (UniProt Q14896); test: screening ELISA on biotinylated MYBPC3 and SPR kinetic screening of hybridoma supernatants
[2] = target: recombinant MYBPC3, monomeric, biotinylated via Avi-tag (human) (UniProt Q14896); test: screening ELISA on biotinylated MYBPC3 and SPR kinetic screening of B-cell supernatants

Row | Binder | binding [1] | binding [2]
1 | B1 | binds | –
2 | B2 | – | binds
